The data set is described as follows: Solvent characteristics (hydrophobic / polar / hydrophilic / complex). The class given is physicochemical. An excerpt: […] conceptual segments were defined for nonelectrolyte molecules: a hydrophobic segment, a polar segment, a hydrophilic segment and a solvation segment. These conceptual segments qualitatively capture the phase behavior of real molecules and their corresponding segments. Real molecules in turn are used as reference molecules for the conceptual segments and available phase equilibrium data of these reference molecules are used to identify NRTL binary parameters for the conceptual segments. […] The study was focused on the 59 ICH solvents used in pharmaceutical process design. Water, triethylamine, and n-octanol were also considered.
Hydrocarbon solvents (aliphatic or aromatic), halogenated hydrocarbons, and ethers are mainly hydrophobic. Ketones, esters and amides are both hydrophobic and polar. Alcohols, glycols, and amines may have both substantial hydrophilicity and hydrophobicity. Acids are complex, with hydrophilicity, polarity, and hydrophobicity.

With `CC(=O)N(C)C` [N,N-Dimethylacetamide], the Solvent characteristics entry is reported as “Polar”.

The values are drawn from US8666675B2, “Computer method and system for predicting physical properties using a conceptual segment model” (Aspen Technology, Inc., priority 2004, dated 2014).
